Article PMC7720213, “Structure of eukaryotic DNA polymerase δ bound to the PCNA clamp while encircling DNA” (Proceedings of the National Academy of Sciences of the …, 2020)
These are yes or no findings as the source states them, for the method shown. Some binding calls cover weakened binding; strength is not graded here. For some assays here: Where a sequence is shown, tags or fusion partners need not be part of it.

Protein sequences, listed by entry. Tags and fused reporters are not part of them.
UniProt P47110: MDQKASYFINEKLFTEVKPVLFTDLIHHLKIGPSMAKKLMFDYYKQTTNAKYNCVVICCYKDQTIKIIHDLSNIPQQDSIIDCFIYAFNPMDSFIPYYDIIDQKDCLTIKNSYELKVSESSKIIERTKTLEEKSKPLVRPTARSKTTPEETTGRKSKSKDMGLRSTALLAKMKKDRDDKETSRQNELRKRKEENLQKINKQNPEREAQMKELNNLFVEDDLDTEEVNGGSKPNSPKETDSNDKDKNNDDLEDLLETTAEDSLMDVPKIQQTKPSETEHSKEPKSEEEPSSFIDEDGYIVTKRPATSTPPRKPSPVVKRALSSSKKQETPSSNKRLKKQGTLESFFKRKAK

T1: GST-Pol31 of the GST-Pol31-Pol32 complex (S. cerevisiae) (UniProt P46957)
T1 sequence: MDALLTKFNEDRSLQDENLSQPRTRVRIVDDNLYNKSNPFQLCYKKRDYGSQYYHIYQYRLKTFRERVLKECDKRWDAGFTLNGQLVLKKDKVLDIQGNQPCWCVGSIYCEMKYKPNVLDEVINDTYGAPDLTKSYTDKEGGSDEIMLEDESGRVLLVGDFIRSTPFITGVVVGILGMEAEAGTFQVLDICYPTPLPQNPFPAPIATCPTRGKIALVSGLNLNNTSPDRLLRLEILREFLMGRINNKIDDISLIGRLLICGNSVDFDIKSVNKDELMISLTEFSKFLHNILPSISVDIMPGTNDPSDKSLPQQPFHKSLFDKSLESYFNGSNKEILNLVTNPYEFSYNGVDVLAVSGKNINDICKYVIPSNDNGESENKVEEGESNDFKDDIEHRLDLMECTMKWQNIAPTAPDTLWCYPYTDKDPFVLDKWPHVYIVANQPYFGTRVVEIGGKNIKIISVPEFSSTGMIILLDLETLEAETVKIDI

T2: S.c. proliferating cell nuclear antigen (PCNA) sliding clamp (S. cerevisiae), P15873
T2 chain: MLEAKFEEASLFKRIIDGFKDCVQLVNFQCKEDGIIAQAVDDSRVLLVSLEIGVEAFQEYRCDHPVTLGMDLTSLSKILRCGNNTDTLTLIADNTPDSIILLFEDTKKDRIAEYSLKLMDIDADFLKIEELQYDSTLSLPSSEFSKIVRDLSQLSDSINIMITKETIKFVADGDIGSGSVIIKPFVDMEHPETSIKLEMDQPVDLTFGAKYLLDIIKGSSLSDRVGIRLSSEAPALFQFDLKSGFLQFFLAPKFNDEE

B1: S.c. DNA polymerase δ regulatory subunit Pol31 (natural protein, S. cerevisiae)
chain: T1 sequence
notes: Pol31 (B subunit), regulatory subunit of Saccharomyces cerevisiae DNA polymerase δ; Stood in the assay as part of the three-subunit Pol δ; also called B subunit

Legend:
[1] = target: T1, GST-Pol31 of the GST-Pol31-Pol32 complex (S. cerevisiae); test: affinity co-purification; Pol31 and Pol32 co-expressed in E. coli BL21(DE3); GST-Pol31-Pol32 complex purified from the clarified lysate on glutathione-Sepharose 4B
[2] = target: T2, S.c. proliferating cell nuclear antigen …; test: cryo-EM structure; 8.0 uM PCNA and 6.0 uM T/P DNA mixed in Hepes-KOH pH 7.5, DTT, MgAc, KOAc, potassium glutamate, 0.4 mM ddTTP, then 3.3 uM Pol δ added; PCNA:Pol δ:T/P DNA 1.2:1:0.9; on ice 1 h; 3.2 Å map; both purified; details: remark: other sources report otherwise

Row | Molecule | binding [1] | binding [2]
1 | Pol32 of the GST-Pol31-Pol32 complex (from UniProt P47110 1-350) | binds | –
2 | B1 | – | no binding
